# These are yes or no findings as the source states them, for the method shown. In cells and extracts the contact can be indirect. Some entries that bind do so weakly or less than the wild type. Where a sequence is shown, tags or fusion partners need not be part of it.
# T1: Flag-tagged TBC1 Domain Family Member 25 (TBC1D25) (UniProt Q3MII6)
# T1 sequence: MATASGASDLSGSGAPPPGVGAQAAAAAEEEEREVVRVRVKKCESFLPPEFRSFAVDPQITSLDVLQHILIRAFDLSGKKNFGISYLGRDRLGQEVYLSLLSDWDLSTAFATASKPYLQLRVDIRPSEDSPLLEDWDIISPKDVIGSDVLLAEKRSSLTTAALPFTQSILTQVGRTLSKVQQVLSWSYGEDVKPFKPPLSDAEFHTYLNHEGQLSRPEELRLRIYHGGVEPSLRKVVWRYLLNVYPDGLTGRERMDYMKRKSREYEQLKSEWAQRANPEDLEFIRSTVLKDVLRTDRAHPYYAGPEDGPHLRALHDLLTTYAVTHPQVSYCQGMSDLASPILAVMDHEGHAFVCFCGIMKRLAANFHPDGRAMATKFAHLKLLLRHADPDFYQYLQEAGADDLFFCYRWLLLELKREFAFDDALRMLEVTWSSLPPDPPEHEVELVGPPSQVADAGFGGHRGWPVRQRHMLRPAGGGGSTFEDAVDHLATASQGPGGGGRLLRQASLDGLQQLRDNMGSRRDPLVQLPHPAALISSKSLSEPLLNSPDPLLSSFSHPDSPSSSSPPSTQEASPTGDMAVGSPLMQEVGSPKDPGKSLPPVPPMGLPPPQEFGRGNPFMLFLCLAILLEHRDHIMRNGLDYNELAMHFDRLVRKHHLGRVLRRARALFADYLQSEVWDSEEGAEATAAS
# B1: HA-tagged TAK1 (transforming growth factor-beta-activated kinase 1) (enzyme, UniProt O43318-2 1-579)
# chain: MSTASAASSSSSSSAGEMIEAPSQVLNFEEIDYKEIEVEEVVGRGAFGVVCKAKWRAKDVAIKQIESESERKAFIVELRQLSRVNHPNIVKLYGACLNPVCLVMEYAEGGSLYNVLHGAEPLPYYTAAHAMSWCLQCSQGVAYLHSMQPKALIHRDLKPPNLLLVAGGTVLKICDFGTACDIQTHMTNNKGSAAWMAPEVFEGSNYSEKCDVFSWGIILWEVITRRKPFDEIGGPAFRIMWAVHNGTRPPLIKNLPKPIESLMTRCWSKDPSQRPSMEEIVKIMTHLMRYFPGADEPLQYPCQYSDEGQSNSATSTGSFMDIASTNTSNKSDTNMEQVPATNDTIKRLESKLLKNQAKQQSESGRLSLGASRGSSVESLPPTSEGKRMSADMSEIEARIAATTGNGQPRRRSIQDLTVTGTEPGQVSSRSSSPSVRMITTSGPTSEKPTRSHPWTPDDSTDTNGSDNSIPMAYLTLDHQLQPLAPCPNSKESMAVFEQHCKMAQEYMKVQTEIALLLQRKQELVAELDQDEKDQQNTSRLVQEHKKLLDENKSLSTYYQQCKKQLEVIRSQQQKRQGTS
# Biological target: T1, Flag-tagged TBC1 Domain Family Member 25 (TBC1D25)
# Experiment: co-IP; 293T cells co-transfected with Flag-TBC1D25 and HA-TAK1; lysed in IP buffer (20 mM Tris-HCl pH 7.4, 150 mM NaCl, 1 mM EDTA, 1% Triton X-100); anti-Flag M2 or anti-HA magnetic beads, 4 C overnight; immunoblot
binder,measurement,value
B1,binding,binds

# From PMC7085222, “TBC1D25 Regulates Cardiac Remodeling Through TAK1 Signaling Pathway” (International Journal of Biological Sciences, 2020)
